Results deposited as PubChem BioAssay AID1053208 (Peter MacCallum Cancer Centre, 2014).
The deposit covers about 17,000 reagents; below is a part drawn at random. Of all reagents, 788 (4.7%) were called active. 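Calls rest on z-score classes alone; an extra cut-off of viability at most 70% of control was not applied to them.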 Entries without a mark were called inactive. Further read-outs or replicates are left out here.

Purpose: 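Find knock-downs that sensitise mouse osteosarcoma cells to doxorubicin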 (primary screen)
Cell system: mouse osteosarcoma cells, early-passage culture from an engineered mouse model of fibroblastic bone tumour
Knock-down reagent: siRNA pool against mouse genes, 40 nM
Timing: about 120 h (48 h before drug, then 72 h with drug)
Challenge: doxorubicin 100 nM for 72 h, roughly 30-40% inhibitory dose
Read-out: 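Luminescent ATP signal taken as viability with or without 100 nM doxorubicin for 72 h; mean of two wells set against non-targeting siRNA and turned into robust z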
Direction: viability z-score with doxorubicin: higher = more viable cells under doxorubicin; viability z-score without drug: higher = more viable cells with knock-down alone
Rule for the call: 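Called active if knock-down leaves viability unchanged without drug (z within -2 to 2) but lowers it with doxorubicin (z at or under -2)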

Ear10 (GeneID 93725)
- combined z-score class: no change with or without drug
- viability z-score with doxorubicin: 0.79
- viability z-score without drug: 0.17

Ifit1bl2 (GeneID 112419)
- combined z-score class: no change with or without drug
- viability z-score with doxorubicin: 0.67
- viability z-score without drug: 1.52

Cbfa2t2 (GeneID 12396)
- combined z-score class: low cell count with doxorubicin only (active)
- viability z-score with doxorubicin: -2.25
- viability z-score without drug: 0.17

Foxd4 (GeneID 14237)
- combined z-score class: no change with or without drug
- viability z-score with doxorubicin: 0.22
- viability z-score without drug: -0.51

Swap70 (GeneID 20947)
- combined z-score class: no change with or without drug
- viability z-score with doxorubicin: -1.8
- viability z-score without drug: -1.35

Nr4a2 (GeneID 18227)
- combined z-score class: no change with or without drug
- viability z-score with doxorubicin: 0.67
- viability z-score without drug: -0.34

9530019H20Rik (GeneID 320999)
- combined z-score class: no change with or without drug
- viability z-score with doxorubicin: 0.34
- viability z-score without drug: -0.17

Rnf24 (GeneID 51902)
- combined z-score class: no change with or without drug
- viability z-score with doxorubicin: -0.45
- viability z-score without drug: -1.18

A stretch of the results above:
Cbfa2t2 (GeneID 12396)
- combined z-score class: low cell count with doxorubicin only (active)
- viability z-score with doxorubicin: -2.25
- viability z-score without drug: 0.17

Foxd4 (GeneID 14237)
- combined z-score class: no change with or without drug
- viability z-score with doxorubicin: 0.22
- viability z-score without drug: -0.51

Further reagents:
Tmem116 (GeneID 77462)
- combined z-score class: no change with or without drug
- viability z-score with doxorubicin: -0.45
- viability z-score without drug: 0.17

Kcnt1 (GeneID 227632)
- combined z-score class: no change with or without drug
- viability z-score with doxorubicin: -0.9
- viability z-score without drug: -0.51

Noc2l (GeneID 57741)
- combined z-score class: no change with or without drug
- viability z-score with doxorubicin: -0.9
- viability z-score without drug: -1.35

Or52k2 (GeneID 259106)
- combined z-score class: no change with or without drug
- viability z-score with doxorubicin: -1.35
- viability z-score without drug: -1.18

Gpr179 (GeneID 217143)
- combined z-score class: no change with or without drug
- viability z-score with doxorubicin: 0
- viability z-score without drug: 0.84

Nalf1 (GeneID 270028)
- combined z-score class: no change with or without drug
- viability z-score with doxorubicin: -0.45
- viability z-score without drug: 0

Fancd2 (GeneID 211651)
- combined z-score class: no change with or without drug
- viability z-score with doxorubicin: -0.67
- viability z-score without drug: 1.52

Cpa6 (GeneID 329093)
- combined z-score class: no change with or without drug
- viability z-score with doxorubicin: -0.45
- viability z-score without drug: 0.34

Ppef2 (GeneID 19023)
- combined z-score class: no change with or without drug
- viability z-score with doxorubicin: 0.56
- viability z-score without drug: -0.34

Clock (GeneID 12753)
- combined z-score class: no change with or without drug
- viability z-score with doxorubicin: 0
- viability z-score without drug: 1.18

Fastkd1 (GeneID 320720)
- combined z-score class: no change with or without drug
- viability z-score with doxorubicin: 1.8
- viability z-score without drug: 0.51
